# Experimental data reported in patent US11234943B2, “Use of reservatrol for the treatment of non-alcoholic fatty liver disease (NAFLD)” (priority 2016, dated 2022).
# Assay: Body weight and BMI of study participants
# Format: in vivo, human
# Conditions: all 44 participants (50 mg and 200 mg groups), mean, time 2 (6 months)
# Description: Then, the patients were divided into two groups (randomly assigned) according to the treatment given to them. 22 patients were given treatment 50 mg RSV micronized formulation, Evelor capsules once daily, (Group A) and 22 patients were given treatment 200 mg RSV micronized formulation, Evelor capsules, once daily, (Group B). The observation period lasted for 6 months. There was a clinical examination, blood tests and an abdominal ultrasound at the beginning of the study (time 1) and in 6 months (time 2). All patients were on low fat diet and they were being followed up by nutritionist.
smiles,measurement,value
"Oc1ccc(/C=C/c2cc(O)cc(O)c2)cc1 [Resveratrol, resveratrol]",BMI At time 2,27.93 kg/cm^2
same,Weight At time 2,82.33 kg
